Reference: patent US20220249364A1, “Designed Inhibitors of Tight Junction Formation” (University of Rochester, priority 2019, published 2022)
Not every detail of the peptide structures is certain; ends, links or a residue may be inferred. Some entries share one result that the patent states for a list of compounds. For some of these results: The name of at least one read-out is uncertain. No end group written: not given here.

Tests used:
[1] = Solubility / aggregation of peptides in buffer or cell culture media; assay type: physicochemical; settings: for solubilization and dilution into cell culture media: with 0.12% PLURONIC F-127; for aggregation: prepared directly in buffer or cell culture media
[2] = tested on: 16HBE cells; test: TER measurement of tight junction disruption in 16HBE cells; assay type: cell-based, human; settings: for maximum TER reduction: 30 μM; for TER disruption: 0.4 μM; for peak TER decrease: 50 μM; for effect on TER: 16HBE after TJ formation, peptides 0.4 to 50 μM vs vehicle, p<0.01 (Peptide 1), p<0.0001 (Peptide 2)
Protocol: PHFK were isolated from discarded foreskin tissue. Isolation and propagation procedures for both PHFK and 16HBE cells were done as previously described (Poumay, Roland, Leclercq-Smekens, & Leloup, 1994; Saatian et al., 2013).
10 mgs of synthesized TJDP (RS SYNTHESIS) was dissolved in 100 μl of DMSO (SIGMA). Dissolved peptide was then diluted in pre-warmed (55 ° C.) DMSO/PLURONIC F127® (SPECTRUM) solution formulated in PBS (0.6% / 0.12%, respectively). This solution was heated at 55° C. for 30 minutes then homogenized into detergent using a water bath sonicator (BRANSON 2200) for 10 minutes and vortexed for 1 minute. Peptide was stored at 4° C. until use.
TER and paracellular flux were done as previously published (De Benedetto, Rafaels, et al., 2011). Briefly, measurements of TER were taken for up to 6 days following exposure to TJ disrupting peptides or vehicle. 2 μM of fluorescently-labeled antibody (palivizumab) was added to cells after 24 hours of exposure to TJDP and paracellular flux was measured 30 minutes and 18 hours later.
Initial experiments employed the human bronchial epithelial cell line, 16HBE since this cell line is known for its robust TJ formation (Saatian et al., 2013). In the media used for peptide exposure, 16HBE cells achieved a stable TER of 800-1200 Ω*cm^2 (FIG. 7). […] The honeycomb fluorescence pattern of these proteins on the cell surface is a hallmark of a barrier competent TJ (Furuse, Fujita, Hiiragi, Fujimoto, & Tsukita, 1998; Furuse et al., 1993). Following TJ formation, cells were exposed to peptides (0.4 to 50 μm) or vehicle. […] The disruption was dose-dependent, with both peptides eliciting minimal disruption at 0.4 μM (2-3%) and increasing reductions at higher concentrations. […] Inventors observed enhanced TJ penetration of a labeled monoclonal antibody (palivizumab, 150 kDa) in peptide-treated cells (FIG. 2C) (Anderson, Carosone-Link, Yogev, Yi, & Simoes, 2017). Antibody penetration was enhanced 2.5±0.2-fold and 3.2±0.4-fold by 2.4 and 12 μM Peptide 1, respectively. Inventors observed greater permeability after Peptide 2 exposure, with 4.9±0.4-fold and 5.6±0.9-fold enhancement using 2.4 and 12 μM, respectively. The antibody diffusion was measured at 30 min to reduce the likelihood that active transcellular transport was measured.

[3] = target: T1, Cldn1 (Homo sapiens, UniProt O95832); test: Immunofluorescence staining of Cldn1 in PHFK; assay type: cell-based; settings: two and four days after peptide treatment
T1 construct: TJ-associated proteins were then examined by immunofluorescence staining of PHFK; endogenous in cells; host or cells: PHFK (primary keratinocytes)
T1 sequence (O95832 1-211): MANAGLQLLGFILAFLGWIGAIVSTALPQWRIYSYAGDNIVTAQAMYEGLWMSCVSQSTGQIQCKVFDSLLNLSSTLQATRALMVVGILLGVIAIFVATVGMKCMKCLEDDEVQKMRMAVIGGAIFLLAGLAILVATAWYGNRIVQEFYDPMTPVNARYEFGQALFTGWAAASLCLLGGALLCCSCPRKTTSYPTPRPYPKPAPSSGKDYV

[4] = tested on: murine skin; test: Patch treatment and TEWL measurement of mouse skin; assay type: in vivo, Balb/c mice; settings: for increase in TEWL compared to vehicle patch: 7.8 nmol/cm^2 patch for 18 hours, p<0.01
[5] = tested on: occludin (Ocln); test: Immunofluorescence staining of Ocln in PHFK; assay type: cell-based, human
[6] = tested on: primary human foreskin keratinocytes (PHFK); test: TER measurement of TJ formation in differentiating PHFK; assay type: cell-based
[7] = tested on: 16HBE cells; test: Paracellular flux of fluorescently-labeled antibody (palivizumab) through 16HBE monolayer; assay type: cell-based, human; settings: diffusion measured at 30 min

Sequence: SILTGVSTLDNTLGQLTNFSNAVSTQTSR [Peptide 4]
- solubilization and dilution into cell culture media [1]: without precipitation
- maximum TER reduction ([2]; day two): 74%

Sequence: SILTGVSTLDQSLKQLSNFSQAVSTQSSR [Peptide 2]
- Cldn1 intensity per number of DAPI+ PHFK [3]: greater Cldn1intensity
- aggregation [1]: strongly aggregated
- solubilization and dilution into cell culture media [1]: without precipitation
- increase in TEWL compared to vehicle patch ([4]; 1 hour post-patch removal): 1.8 fold
- increase in TEWL compared to vehicle patch ([4]; 3 hours post-patch removal): 1.6 fold
- barrier function (TEWL) ([4]; 24 hours post-patch removal): returning to baseline
- magnitude of Ocln staining ([5]; 10 μM, day two and four, p<0.05, p<0.01): Significant reduction
- honeycomb Ocln staining ([5]; four days post peptide treatment, compared to control cells): notable lack of honeycomb Ocln staining
- delay in TJ formation (TER) ([6]; peptide added at initiation of differentiation (high calcium media), p<0.001): significant delay in TJ formation for five days
- barrier recovery after peptide removal ([6]; peptide removed day three): recovery of barrier equivalent to media-treated controls
- TJ disruption of already differentiated PHFK ([6]; three days post high calcium media, data not shown): refractory to TJ disruption
- TER disruption [2]: 2-3%
- peak TER decrease ([2]; day two): 90%
- effect on TER [2]: significantly decreased TER

Sequence: SILTGVSTLGNTLGQLTNFSNAVSTQTSR [Peptide 3]
- solubilization and dilution into cell culture media [1]: without precipitation
- maximum TER reduction ([2]; day three): 68%

Sequence: SSVSQSTGQIQSKVFDSLLNLSSTLQATR [Peptide 1]
- aggregation [1]: strongly aggregated
- solubilization and dilution into cell culture media [1]: without precipitation
- enhancement of antibody penetration (palivizumab, 150 kDa) ([7]; 2.4 μM peptide): 2.5±0.2 fold
- enhancement of antibody penetration (palivizumab, 150 kDa) ([7]; 12 μM peptide): 3.2±0.4 fold
- TER disruption [2]: 2-3%
- peak TER decrease ([2]; day three): 72%
- effect on TER [2]: significantly decreased TER
